These are yes or no findings as the source states them, for the method shown. Binding seen in cells or lysates may run through a third protein. Some results given as binding are weak or reduced against the parent protein; the word gives no strength.

Chains of the proteins cited; added tags and fusions are not shown.
UniProt D3ZNT6: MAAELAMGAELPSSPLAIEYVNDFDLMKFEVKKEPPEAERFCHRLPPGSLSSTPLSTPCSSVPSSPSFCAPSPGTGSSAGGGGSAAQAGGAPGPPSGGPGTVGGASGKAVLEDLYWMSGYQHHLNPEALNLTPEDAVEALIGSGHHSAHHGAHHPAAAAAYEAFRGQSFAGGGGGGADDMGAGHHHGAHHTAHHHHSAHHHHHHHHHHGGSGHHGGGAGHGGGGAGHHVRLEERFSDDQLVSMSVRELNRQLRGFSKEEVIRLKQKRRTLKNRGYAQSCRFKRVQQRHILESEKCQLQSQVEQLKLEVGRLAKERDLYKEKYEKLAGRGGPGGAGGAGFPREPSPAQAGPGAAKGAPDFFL
UniProt P52947: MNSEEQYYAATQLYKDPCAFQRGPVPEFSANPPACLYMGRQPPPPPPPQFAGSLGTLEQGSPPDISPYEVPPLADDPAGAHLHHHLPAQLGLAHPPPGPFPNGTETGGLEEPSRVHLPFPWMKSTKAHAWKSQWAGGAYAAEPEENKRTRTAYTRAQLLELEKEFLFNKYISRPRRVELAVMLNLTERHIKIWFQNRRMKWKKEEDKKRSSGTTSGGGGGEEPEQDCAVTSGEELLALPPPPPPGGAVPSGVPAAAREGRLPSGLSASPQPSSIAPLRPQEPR
UniProt Q64289: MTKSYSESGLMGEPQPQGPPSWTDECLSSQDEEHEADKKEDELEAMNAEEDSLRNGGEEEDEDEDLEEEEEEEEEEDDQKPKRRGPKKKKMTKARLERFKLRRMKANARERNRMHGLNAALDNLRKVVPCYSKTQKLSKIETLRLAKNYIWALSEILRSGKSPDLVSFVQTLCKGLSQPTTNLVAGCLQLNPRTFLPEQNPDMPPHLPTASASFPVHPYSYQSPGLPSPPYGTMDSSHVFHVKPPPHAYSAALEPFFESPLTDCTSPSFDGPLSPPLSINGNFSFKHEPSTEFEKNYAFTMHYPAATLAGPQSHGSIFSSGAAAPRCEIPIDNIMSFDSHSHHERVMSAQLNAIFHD

The assay addresses T1, PIMT (PRIP-Interacting protein with Methyl Transferase activity) (rat (endogenous in BRIN-BD11)) (UniProt P85107).
T1 sequence: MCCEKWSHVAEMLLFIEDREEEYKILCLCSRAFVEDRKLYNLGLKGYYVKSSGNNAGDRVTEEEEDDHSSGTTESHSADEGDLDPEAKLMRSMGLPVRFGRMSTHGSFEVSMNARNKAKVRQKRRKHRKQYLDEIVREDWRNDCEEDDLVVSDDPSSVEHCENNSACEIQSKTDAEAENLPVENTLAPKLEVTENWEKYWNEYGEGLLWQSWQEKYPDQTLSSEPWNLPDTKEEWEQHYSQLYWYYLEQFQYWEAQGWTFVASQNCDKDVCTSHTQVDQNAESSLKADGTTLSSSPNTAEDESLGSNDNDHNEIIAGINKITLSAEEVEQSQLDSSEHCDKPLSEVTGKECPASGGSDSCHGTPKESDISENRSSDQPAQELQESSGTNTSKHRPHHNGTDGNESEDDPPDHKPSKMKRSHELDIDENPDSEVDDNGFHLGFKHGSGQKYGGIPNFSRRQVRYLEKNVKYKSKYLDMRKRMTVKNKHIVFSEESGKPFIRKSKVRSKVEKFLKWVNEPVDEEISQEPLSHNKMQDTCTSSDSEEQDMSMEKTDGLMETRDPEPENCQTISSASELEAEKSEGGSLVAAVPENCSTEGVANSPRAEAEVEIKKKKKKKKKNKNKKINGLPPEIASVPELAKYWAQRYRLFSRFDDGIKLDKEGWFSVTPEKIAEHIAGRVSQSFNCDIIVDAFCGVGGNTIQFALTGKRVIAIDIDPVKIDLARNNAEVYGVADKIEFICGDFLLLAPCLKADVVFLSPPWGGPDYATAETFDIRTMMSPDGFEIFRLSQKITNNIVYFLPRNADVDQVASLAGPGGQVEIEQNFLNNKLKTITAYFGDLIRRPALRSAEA
As to the kind of experiment: co-IP; precleared 500 ug BRIN-BD11 cell lysate incubated with PIMT antibody (4 ug) overnight at 4 C; beads washed with lysis buffer; precipitates blotted with the indicated antibodies; basal (untreated) cells.
In the case of “MafA (MAF bZIP transcription factor A) (from UniProt D3ZNT6 1-361)”, the binding result is recorded as “binds”. Then “PDX1 (pancreatic and duodenal homeobox 1) (from UniProt P52947 1-283)”, with “binds”; and “NeuroD1 (neuronal differentiation 1) (from UniProt Q64289 1-357)”, with “no binding”.
